# Measurements reported in patent publication US10098881B2, “Compounds” (AUTIFONY THERAPEUTICS LIMITED, priority 2011, dated 2018).
# For at least one compound, name, drawing or mass did not settle the structure.
# Test system: Male CD-1 mice
# Experiment: Biological Example 2: psychostimulant (amphetamine)-induced hyperactivity in mice
compound,measurement,setting,value
"Cc1ccc(Oc2ncc(N3C(=O)NC(C)(C)C3=O)cn2)c2c1OCC21CC1 [Example 4, 5,5-dimethyl-3-[2-(7-methylspiro[2H-benzofuran-3,1′-cyclopropane]-4-yl)oxypyrimidin-5-yl]imidazolidine-2,4-dione]",effect on the increase in total locomotor activity produced by amphetamine,10 mg/kg i.p.,significantly reduced the increase
same,effect on the increase in locomotor activity induced by amphetamine,30 mg/kg i.p.,further reduced the increase
